{"source": "PubChem BioAssay AID504764 (Drosophila RNAi Screening Center, 2011)", "purpose": "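Genes whose knock-down alters Notch-dependent transcription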 (primary screen)", "system": "Drosophila Kc167 cells", "reagent": "long dsRNA against Drosophila genes", "timing": "about 5 days (4 days dsRNA, then 24 h after transfection)", "treatment": "transfection of constitutively active membrane-tethered Notch lacking the extracellular domain, read 24 h later", "detection": "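Firefly luciferase from an E(spl)m3 reporter with active Notch, plus control-promoter and uninduced reporter wells for normalisation; unnormalised counts, duplicate wells a and b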", "scale": "induced reporter light, run 1, well a and induced reporter light, run 1, well b: higher = more light from the Notch target reporter with active Notch; control promoter light, run 1, well a and control promoter light, run 1, well b: higher = more light from the viral control promoter (cell number, transfection, viability); uninduced reporter light, run 1, well a: higher = more light from the Notch target reporter without active Notch", "call rule": "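Wells with low control signal or poorly matching duplicates excluded; duplicates averaged; per source plate, z beyond ±2 for induced/control log2 ratio or beyond ±1.8 for induced/uninduced marks a hit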", "calls": "active = modifier hit (raised or lowered Notch signal); inactive = not a hit", "note": "The screen tested about 22,000 reagents; shown is an unselected part of those with a known target gene and a result. Of all reagents, 403 (1.9%) were called active. 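Unnormalised raw counts per well; ratio z-scores behind the hit calls and whether each hit raises or lowers signal are not deposited.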 A plus sign joins genes that one reagent is predicted to hit. Not stated in the record: the amount of reagent."}
{"target gene": "CG17597 (GeneID 35140)", "amplicon": "DRSC02630", "induced reporter light, run 1, well a": 2.48e5, "induced reporter light, run 1, well b": 2.07e5, "control promoter light, run 1, well a": 2.18e5, "control promoter light, run 1, well b": 2.26e5, "uninduced reporter light, run 1, well a": 18395, "activity call": "inactive"}
{"target gene": "CG12920 (GeneID 36052)", "amplicon": "DRSC06234", "induced reporter light, run 1, well a": 1.83e5, "induced reporter light, run 1, well b": 1.97e5, "control promoter light, run 1, well a": 3.03e5, "control promoter light, run 1, well b": 2.75e5, "uninduced reporter light, run 1, well a": 19845, "activity call": "inactive"}
{"target gene": "asf1 (GeneID 40141)", "amplicon": "DRSC11324", "induced reporter light, run 1, well a": 49120, "induced reporter light, run 1, well b": 54945, "control promoter light, run 1, well a": 41405, "control promoter light, run 1, well b": 43490, "uninduced reporter light, run 1, well a": 4810, "activity call": "inactive"}
{"target gene": "CG10550 (GeneID 43061)", "amplicon": "DRSC14251", "induced reporter light, run 1, well a": 1.96e5, "induced reporter light, run 1, well b": 2.00e5, "control promoter light, run 1, well a": 2.84e5, "control promoter light, run 1, well b": 3.01e5, "uninduced reporter light, run 1, well a": 14045, "activity call": "inactive"}
{"target gene": "CG12523 (GeneID 39216)", "amplicon": "DRSC09895", "induced reporter light, run 1, well a": 37110, "induced reporter light, run 1, well b": 53170, "control promoter light, run 1, well a": 69805, "control promoter light, run 1, well b": 67110, "uninduced reporter light, run 1, well a": 950, "activity call": "inactive"}
{"target gene": "CG43901 (GeneID 32024)", "amplicon": "DRSC19397", "induced reporter light, run 1, well a": 1.37e5, "induced reporter light, run 1, well b": 1.31e5, "control promoter light, run 1, well a": 3.11e5, "control promoter light, run 1, well b": 2.26e5, "uninduced reporter light, run 1, well a": 10655, "activity call": "inactive"}
{"target gene": "CG43901 (GeneID 32024)", "amplicon": "DRSC19652", "induced reporter light, run 1, well a": 29150, "induced reporter light, run 1, well b": 32870, "control promoter light, run 1, well a": 74135, "control promoter light, run 1, well b": 55635, "uninduced reporter light, run 1, well a": 4440, "activity call": "inactive"}
{"target gene": "Pal2 (GeneID 37746)", "amplicon": "DRSC04507", "induced reporter light, run 1, well a": 1.82e5, "induced reporter light, run 1, well b": 1.43e5, "control promoter light, run 1, well a": 1.65e5, "control promoter light, run 1, well b": 1.80e5, "uninduced reporter light, run 1, well a": 12205, "activity call": "inactive"}
{"target gene": "mAcon2 (GeneID 41326)", "amplicon": "DRSC15629", "induced reporter light, run 1, well a": 72140, "induced reporter light, run 1, well b": 81935, "control promoter light, run 1, well a": 80825, "control promoter light, run 1, well b": 78185, "uninduced reporter light, run 1, well a": 4735, "activity call": "inactive"}
{"target gene": "PHDP (GeneID 37788)", "amplicon": "DRSC04635", "induced reporter light, run 1, well a": 1.85e5, "induced reporter light, run 1, well b": 1.44e5, "control promoter light, run 1, well a": 1.41e5, "control promoter light, run 1, well b": 1.56e5, "uninduced reporter light, run 1, well a": 11460, "activity call": "inactive"}
{"target gene": "CG10907 (GeneID 39331)", "amplicon": "DRSC09804", "induced reporter light, run 1, well a": 1.59e5, "induced reporter light, run 1, well b": 1.42e5, "control promoter light, run 1, well a": 2.22e5, "control promoter light, run 1, well b": 1.66e5, "uninduced reporter light, run 1, well a": 6800, "activity call": "inactive"}
{"target gene": "CG42374 + Mettl5", "amplicon": "DRSC11085", "induced reporter light, run 1, well a": 1.08e5, "induced reporter light, run 1, well b": 1.17e5, "control promoter light, run 1, well a": 68820, "control promoter light, run 1, well b": 66455, "uninduced reporter light, run 1, well a": 9395, "activity call": "inactive"}

Single entries from the entries so far.
CG10550 (GeneID 43061) [DRSC14251], uninduced reporter light, run 1, well a = 14045
Under “induced reporter light, run 1, well a”, mAcon2 (GeneID 41326) [DRSC15629] reads 72140
